Test results from article doi:10.1101/325332.

By UniProt entry, the sequences of proteins in these tests, tags left out.
UniProt Q96NC0: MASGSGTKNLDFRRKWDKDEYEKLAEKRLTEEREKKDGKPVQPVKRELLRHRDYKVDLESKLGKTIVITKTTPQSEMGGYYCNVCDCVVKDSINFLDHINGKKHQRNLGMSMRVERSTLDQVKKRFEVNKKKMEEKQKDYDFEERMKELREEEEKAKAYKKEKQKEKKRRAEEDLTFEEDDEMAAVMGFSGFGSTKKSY
UniProt Q07955: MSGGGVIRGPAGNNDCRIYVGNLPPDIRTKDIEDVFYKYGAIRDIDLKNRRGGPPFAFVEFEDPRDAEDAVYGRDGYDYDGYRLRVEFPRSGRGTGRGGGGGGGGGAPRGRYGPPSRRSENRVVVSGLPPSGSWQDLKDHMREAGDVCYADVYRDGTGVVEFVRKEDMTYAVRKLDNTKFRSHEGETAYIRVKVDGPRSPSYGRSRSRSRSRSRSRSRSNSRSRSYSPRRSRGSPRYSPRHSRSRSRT

Biological target: matrin-type 2 zinc-finger protein ZMAT2 (human (endogenous in primary keratinocytes)) (UniProt Q96NC0)
Test: affinity purification with mass spectrometry

binding: binds
Substance: SRSF1 (from UniProt Q07955 1-248)

No constants are given. Whether binding was seen depends on the method and setting. In cells and extracts the contact can be indirect. A yes stands for co-enrichment or nearness to the bait. Other partners may have been found.
